Assay results published in PubChem BioAssay AID256 (DTP/NCI, 2004).
The list is a part of this screen's results and no random one: it is rich in T/C values a quarter to a half above the control, in often repeated tests (any T/C) and in doses without a T/C. Further doses and runs are listed elsewhere. T/C is the treated group as % of the vehicle group. Some doses have a count of surviving animals in place of a T/C: the source files T/C as zero there, which appears to mark a toxic dose or a test without result, not a measured value. Some survivor counts are full or nearly so, which does not show that the dose was tolerated: survival well below the control is almost never listed, so the zero probably covers shortened survival too. Counts of survivors are from the toxicity check (mostly the fifth day) where no day follows; animals may have died later. Schedules are NCI's codes, taken here to give the interval after Q, in days (D) or hours (H), and the number of doses after X. Where survival is the endpoint, the PubChem record calls one and a half times the control and up active, and a quarter to a half above the control has no call in these data; cut-offs in other NCI protocols can differ. Some T/C values carry the count of animals alive at the toxicity check (mostly the fifth day); where none is given, no animal had died by that day.

System: CD2F1 mice, L1210 leukemia ip, survival T/C
Assay: NCI In Vivo Anticancer Drug Screen. Data for tumor model L1210 Leukemia (intraperitoneal) in CD2F1 (CDF1) mice
Settings: higher T/C = longer survival
Procedure, shortened: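 Implant tumor; dose compound or vehicle; measure endpoint in both groups; report treated divided by control.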

[1] = T/C endpoint: mean survival time, dose: 400.0 mg/kg/injection, schedule: Q04DX003 (ip), vehicle: saline with Tween-80
[2] = T/C endpoint: mean survival time, dose: 400.0 mg/kg/injection, schedule: Q01DX009 (ip), vehicle: saline with Tween-80
[3] = T/C endpoint: mean survival time, dose: 200.0 mg/kg/injection, schedule: Q01DX009 (ip), vehicle: saline with Tween-80

Compound: CN1c2c(nc(N)[nH]c2=O)NCC1CCNc1ccc(C(=O)NC(CCC(=O)O)C(=O)O)cc1 (configuration not stated)
- T/C (T/C endpoint: mean survival time, dose: 100.0 mg/kg/injection, schedule: Q01DX009 (ip), vehicle: Klucel (hydroxypropylcellulose) (HPC)): 132 % of control
- T/C (T/C endpoint: mean survival time, dose: 200.0 mg/kg/injection, schedule: Q01DX009 (ip), vehicle: Klucel (hydroxypropylcellulose) (HPC)): 132 % of control
- T/C (T/C endpoint: mean survival time, dose: 300.0 mg/kg/injection, schedule: Q01DX009 (ip), vehicle: sodium bicarbonate): 133 % of control
- T/C (T/C endpoint: mean survival time, dose: 400.0 mg/kg/injection, schedule: Q01DX009 (ip), vehicle: Klucel (hydroxypropylcellulose) (HPC)): 139 % of control
- T/C (T/C endpoint: mean survival time, dose: 440.0 mg/kg/injection, schedule: Q01DX009 (ip), vehicle: sodium bicarbonate): 132 % of control
- T/C (T/C endpoint: mean survival time, dose: 500.0 mg/kg/injection, schedule: Q01DX009 (ip), vehicle: sodium bicarbonate): 140 % of control
- T/C (T/C endpoint: mean survival time, dose: 660.0 mg/kg/injection, schedule: Q01DX009 (ip), vehicle: sodium bicarbonate): 138 % of control
- T/C (T/C endpoint: mean survival time, dose: 750.0 mg/kg/injection, schedule: Q01DX009 (ip), vehicle: sodium bicarbonate): 149 % of control
- T/C (T/C endpoint: mean survival time, dose: 800.0 mg/kg/injection, schedule: Q01DX009 (ip), vehicle: Klucel (hydroxypropylcellulose) (HPC)): 126 % of control
- T/C (T/C endpoint: mean survival time, dose: 1000.0 mg/kg/injection, schedule: Q01DX009 (ip), vehicle: sodium bicarbonate, evaluated on day 30): 147 % of control
- T/C (T/C endpoint: mean survival time, dose: 1000.0 mg/kg/injection, schedule: Q01DX009 (ip), vehicle: sodium bicarbonate, evaluated on day 45): 138 % of control

Compound: COc1cc2ccc(CC(=S)N3CCOCC3)cc2cc1OC
- survivor count [1]: 6 of 6

Compound: CC1C(=O)OC2C1CCC1(C)C3OC3C(=O)C3(C)OC231 (configuration not stated)
- survivor count (T/C endpoint: mean survival time, dose: 200.0 mg/kg/injection, schedule: Q04DX002 (ip), vehicle: saline with Tween-80): 2 of 3
- survivor count (T/C endpoint: mean survival time, dose: 400.0 mg/kg/injection, schedule: Q04DX002 (ip), vehicle: saline with Tween-80): 0 of 3

Compound: CCOC(=O)N1Cc2cc3ccccc3nc2C1
- survivor count (T/C endpoint: mean survival time, dose: 300.0 mg/kg/injection, schedule: Q01DX009 (ip), vehicle: saline with Tween-80): 2 of 6

Compound: CN(C)c1ccc(/C=N/NC(=O)COc2ccccc2)cc1
- survivor count [2]: 6 of 6

Compound: CN(C)N=Nc1cc(Cl)cc(C(N)=O)c1Cl
- T/C (T/C endpoint: mean survival time, dose: 266.0 mg/kg/injection, schedule: Q01DX009 (ip), vehicle: saline with Tween-80): 135 % of control [4 of 6 alive]

Compound: COc1cc(OC)c(NC(=O)OCCOc2cc(C)c(Cl)c(C)c2)cc1Cl
- survivor count (T/C endpoint: mean survival time, dose: 50.0 mg/kg/injection, schedule: Q01DX009 (ip), vehicle: saline with Tween-80): 3 of 3
- survivor count [3]: 3 of 3

Compound: O=C(O)CN(CC(=O)O)C1CCCCC1N(CC(=O)O)CC(=O)O.[Cl][Pd][Cl] (configuration not stated)
- survivor count (T/C endpoint: median survival time, dose: 320.0 mg/kg/injection, schedule: Q04DX003 (ip), vehicle: saline): 1 of 6

Compound: Cn1cnc2c(SCc3ccccc3)ncnc21
- T/C (T/C endpoint: mean survival time, dose: 200.0 mg/kg/injection, schedule: Q04DX003 (ip), vehicle: saline with Tween-80): 126 % of control
- T/C [1]: 140 % of control

Compound: Cn1c(=O)c2c(ncn2CN2CCN(Cn3cnc4c3c(=O)n(C)c(=O)n4C)CC2)n(C)c1=O
- survivor count (T/C endpoint: mean survival time, dose: 400.0 mg/kg/injection, schedule: Q01DX001 (ip), vehicle: saline): 3 of 6

Compound: COc1ccc(C2=NC(C)Cc3cc(OC)c(OC)cc32)cc1OC (configuration not stated)
- survivor count (T/C endpoint: mean survival time, dose: 200.0 mg/kg/injection, schedule: Q01DX009 (ip), vehicle: water): 1 of 6

Compound: CCCC(=O)OCC1OC(n2cnc3c(=S)nc[nH]c32)C(OC(=O)CCC)C1OC(=O)CCC (configuration not stated)
- T/C (T/C endpoint: mean survival time, dose: 45.0 mg/kg/injection, schedule: Q04DX003 (ip), vehicle: saline with Tween-80): 140 % of control
- T/C (T/C endpoint: mean survival time, dose: 65.0 mg/kg/injection, schedule: Q04DX003 (ip), vehicle: saline with Tween-80): 140 % of control

Compound: COc1ccc(OC)c(NC(=O)NNC(=O)c2ccc(Cl)cc2)c1
- survivor count [3]: 5 of 6
- survivor count [2]: 5 of 6

Compound: C1CN2CCC1C1(C2)SSC2(CN3CCC2CC3)S1 (configuration not stated)
- survivor count (T/C endpoint: mean survival time, dose: 100.0 mg/kg/injection, schedule: Q04DX003 (ip), vehicle: saline): 0 of 6
- survivor count (T/C endpoint: mean survival time, dose: 200.0 mg/kg/injection, schedule: Q04DX003 (ip), vehicle: saline): 0 of 6
- survivor count (T/C endpoint: mean survival time, dose: 400.0 mg/kg/injection, schedule: Q04DX003 (ip), vehicle: saline): 0 of 6

Compound: CC([NH-])CC[NH-].[Cl][Pt+2][Cl] (configuration not stated)
- T/C (T/C endpoint: mean survival time, dose: 3.12 mg/kg/injection, schedule: Q04DX003 (ip), vehicle: saline with Tween-80): 132 % of control
- T/C (T/C endpoint: mean survival time, dose: 12.5 mg/kg/injection, schedule: Q04DX003 (ip), vehicle: saline with Tween-80): 133 % of control

Compound: NNc1ncn[nH]1
- survivor count (T/C endpoint: mean survival time, dose: 100.0 mg/kg/injection, schedule: Q01DX001 (ip), vehicle: saline with Tween-80): 0 of 6

Compound: OCNC(=S)c1c(Cl)cccc1Cl
- survivor count [2]: 3 of 6

Compound: Nc1cnc(/C=C/c2ccccc2)nc1
- survivor count (T/C endpoint: mean survival time, dose: 300.0 mg/kg/injection, schedule: Q01DX001 (ip), vehicle: other): 0 of 6

Compound: O=C(NO)c1cc(Br)cc(Br)c1O
- survivor count (T/C endpoint: mean survival time, dose: 800.0 mg/kg/injection, schedule: Q04DX002 (ip), vehicle: saline with Tween-80): 0 of 3
